Measurements as given in US20090100532A1, “TRANSGENIC MICE EXPRESSING HYPERSENSITIVE NICOTINIC RECEPTORS” (CALIFORNIA INSTITUTE OF TECHNOLOGY, priority 2007, published 2009).
At least one structure is not confirmed: it was looked up by name or label, or the drawing left a doubt.

How the values were obtained:
[1] = test system: α4Yβ2 receptors; conditions: cited from earlier work
[2] = test system: α6^L9′S mice; conditions: mouse, in vivo
Protocol: Locomotor Activity. Mice used to study locomotion were eight to sixteen weeks old by the beginning of an experiment, and were back-crossed to C57BL/6 at least three times. […] Mouse horizontal locomotor activity was measured with an infrared photobeam activity cage system (San Diego Instruments; San Diego, Calif.). Ambulation events were recorded when two contiguous photobeams were broken in succession. Acute locomotor activity in response to nicotinic ligands or other agents was studied by recording ambulation events during four 15 sec intervals per minute for a designated number of minutes. For most experiments, groups of eight mice were placed in the activity cages (18×28 cm) and their baseline level of activity was recorded for eight minutes. Mice were removed from their cage, injected (100 μl per 25 g body mass), and returned to the cage within 15 sec. […] For generation of locomotor activity concentration-response relationship profiles, a group of mice was administered saline and, after five to eight days off, each successive dose of drug. […] For 48 h home cage monitoring, mice were isolated in their own cage and habituated to the test room and cage for 24 h. Following this, locomotor activity was recorded in 15 min intervals for 48 h.

SMILES | voltage-clamped responses [1] [pA] | effect of antagonist pre-injection on nicotine-stimulated locomotor response [2]
CC(=O)OCC[N+](C)(C)C [ACh, acetylcholine] | 2030 | 
CN1CCc2cc(Cl)c(O)cc2[C@@H](c2ccccc2)C1 [SCH23390] |  | completely inhibited
